Measured values as given in the supplement of paper PMC10849652.
The list shows a part of the results.

The chains behind the UniProt entries cited, without tags or fusion partners. Where a name states a change or a piece, a line headed by the entry shows the natural chain unless it says otherwise.
UniProt Q07687: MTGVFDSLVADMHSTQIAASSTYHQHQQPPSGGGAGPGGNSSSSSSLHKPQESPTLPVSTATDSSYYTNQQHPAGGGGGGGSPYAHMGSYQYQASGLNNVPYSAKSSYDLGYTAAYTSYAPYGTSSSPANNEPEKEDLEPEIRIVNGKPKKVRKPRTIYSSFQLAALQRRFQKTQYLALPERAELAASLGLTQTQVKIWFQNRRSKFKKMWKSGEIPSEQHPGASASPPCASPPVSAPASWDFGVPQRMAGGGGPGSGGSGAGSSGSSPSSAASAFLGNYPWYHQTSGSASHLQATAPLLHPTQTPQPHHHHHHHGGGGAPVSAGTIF
UniProt Q6Y2X3: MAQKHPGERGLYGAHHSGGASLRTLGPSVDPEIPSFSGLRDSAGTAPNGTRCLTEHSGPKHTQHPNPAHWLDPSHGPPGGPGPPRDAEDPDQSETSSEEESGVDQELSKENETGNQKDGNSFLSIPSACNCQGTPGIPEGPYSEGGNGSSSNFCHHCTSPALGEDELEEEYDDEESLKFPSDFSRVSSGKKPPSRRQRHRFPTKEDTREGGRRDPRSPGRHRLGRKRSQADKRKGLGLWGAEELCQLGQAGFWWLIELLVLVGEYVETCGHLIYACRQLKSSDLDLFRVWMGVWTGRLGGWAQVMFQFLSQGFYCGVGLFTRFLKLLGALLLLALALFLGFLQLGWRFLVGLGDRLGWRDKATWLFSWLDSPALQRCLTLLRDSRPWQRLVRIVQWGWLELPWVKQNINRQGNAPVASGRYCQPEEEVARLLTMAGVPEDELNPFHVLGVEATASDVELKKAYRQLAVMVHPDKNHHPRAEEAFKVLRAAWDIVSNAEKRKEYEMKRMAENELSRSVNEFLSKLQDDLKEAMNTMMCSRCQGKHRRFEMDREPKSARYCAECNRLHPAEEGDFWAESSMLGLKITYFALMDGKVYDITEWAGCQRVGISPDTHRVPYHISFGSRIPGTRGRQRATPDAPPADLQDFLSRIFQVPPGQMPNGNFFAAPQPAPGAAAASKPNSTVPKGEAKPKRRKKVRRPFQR
UniProt Q8N5I4: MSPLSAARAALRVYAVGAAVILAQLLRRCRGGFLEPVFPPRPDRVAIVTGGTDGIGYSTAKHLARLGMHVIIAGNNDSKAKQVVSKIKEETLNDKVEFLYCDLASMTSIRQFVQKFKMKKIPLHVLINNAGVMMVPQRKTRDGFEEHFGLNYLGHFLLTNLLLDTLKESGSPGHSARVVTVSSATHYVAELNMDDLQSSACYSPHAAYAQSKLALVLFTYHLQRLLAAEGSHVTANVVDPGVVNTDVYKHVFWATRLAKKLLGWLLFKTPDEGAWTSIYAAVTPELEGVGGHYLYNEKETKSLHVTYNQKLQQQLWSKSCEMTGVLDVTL
UniProt Q7Z3D6: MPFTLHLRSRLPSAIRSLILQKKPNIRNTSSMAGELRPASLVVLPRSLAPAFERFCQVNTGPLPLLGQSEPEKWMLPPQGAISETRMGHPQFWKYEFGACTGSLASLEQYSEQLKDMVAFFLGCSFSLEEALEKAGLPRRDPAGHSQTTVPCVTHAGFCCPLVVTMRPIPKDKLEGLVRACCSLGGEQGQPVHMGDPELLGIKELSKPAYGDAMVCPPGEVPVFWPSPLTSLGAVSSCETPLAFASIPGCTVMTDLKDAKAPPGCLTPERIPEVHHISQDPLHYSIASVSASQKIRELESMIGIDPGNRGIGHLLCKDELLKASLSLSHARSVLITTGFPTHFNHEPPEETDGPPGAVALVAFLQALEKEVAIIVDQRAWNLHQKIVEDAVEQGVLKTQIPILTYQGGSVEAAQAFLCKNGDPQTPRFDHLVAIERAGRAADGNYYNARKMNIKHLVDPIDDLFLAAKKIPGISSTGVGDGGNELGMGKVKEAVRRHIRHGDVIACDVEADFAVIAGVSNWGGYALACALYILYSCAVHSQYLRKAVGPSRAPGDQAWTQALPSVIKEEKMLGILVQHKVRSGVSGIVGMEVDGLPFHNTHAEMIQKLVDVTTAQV
UniProt Q12959, whole entry, looked up: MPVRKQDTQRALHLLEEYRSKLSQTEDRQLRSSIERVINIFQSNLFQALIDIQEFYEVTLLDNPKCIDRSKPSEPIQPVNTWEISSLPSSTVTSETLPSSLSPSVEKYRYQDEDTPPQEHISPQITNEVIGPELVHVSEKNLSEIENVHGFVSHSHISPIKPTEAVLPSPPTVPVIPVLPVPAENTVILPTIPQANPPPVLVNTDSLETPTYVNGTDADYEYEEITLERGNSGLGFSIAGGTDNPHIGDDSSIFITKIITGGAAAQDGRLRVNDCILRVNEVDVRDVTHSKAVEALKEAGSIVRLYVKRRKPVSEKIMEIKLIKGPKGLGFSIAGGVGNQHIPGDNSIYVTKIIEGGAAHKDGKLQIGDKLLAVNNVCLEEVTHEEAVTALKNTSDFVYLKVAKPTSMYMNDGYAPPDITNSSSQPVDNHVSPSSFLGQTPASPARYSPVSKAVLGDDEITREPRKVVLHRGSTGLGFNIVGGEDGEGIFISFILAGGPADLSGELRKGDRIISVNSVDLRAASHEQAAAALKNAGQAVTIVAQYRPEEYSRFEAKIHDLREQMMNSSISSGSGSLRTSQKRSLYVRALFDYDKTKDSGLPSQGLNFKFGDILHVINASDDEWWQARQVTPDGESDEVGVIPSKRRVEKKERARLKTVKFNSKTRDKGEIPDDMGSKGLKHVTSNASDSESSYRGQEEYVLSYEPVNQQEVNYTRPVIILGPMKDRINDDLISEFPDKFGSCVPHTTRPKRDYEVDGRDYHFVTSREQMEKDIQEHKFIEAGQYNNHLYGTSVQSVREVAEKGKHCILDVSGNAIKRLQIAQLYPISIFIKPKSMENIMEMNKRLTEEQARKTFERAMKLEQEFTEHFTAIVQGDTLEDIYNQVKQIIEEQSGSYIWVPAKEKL
UniProt P11532, whole entry, looked up: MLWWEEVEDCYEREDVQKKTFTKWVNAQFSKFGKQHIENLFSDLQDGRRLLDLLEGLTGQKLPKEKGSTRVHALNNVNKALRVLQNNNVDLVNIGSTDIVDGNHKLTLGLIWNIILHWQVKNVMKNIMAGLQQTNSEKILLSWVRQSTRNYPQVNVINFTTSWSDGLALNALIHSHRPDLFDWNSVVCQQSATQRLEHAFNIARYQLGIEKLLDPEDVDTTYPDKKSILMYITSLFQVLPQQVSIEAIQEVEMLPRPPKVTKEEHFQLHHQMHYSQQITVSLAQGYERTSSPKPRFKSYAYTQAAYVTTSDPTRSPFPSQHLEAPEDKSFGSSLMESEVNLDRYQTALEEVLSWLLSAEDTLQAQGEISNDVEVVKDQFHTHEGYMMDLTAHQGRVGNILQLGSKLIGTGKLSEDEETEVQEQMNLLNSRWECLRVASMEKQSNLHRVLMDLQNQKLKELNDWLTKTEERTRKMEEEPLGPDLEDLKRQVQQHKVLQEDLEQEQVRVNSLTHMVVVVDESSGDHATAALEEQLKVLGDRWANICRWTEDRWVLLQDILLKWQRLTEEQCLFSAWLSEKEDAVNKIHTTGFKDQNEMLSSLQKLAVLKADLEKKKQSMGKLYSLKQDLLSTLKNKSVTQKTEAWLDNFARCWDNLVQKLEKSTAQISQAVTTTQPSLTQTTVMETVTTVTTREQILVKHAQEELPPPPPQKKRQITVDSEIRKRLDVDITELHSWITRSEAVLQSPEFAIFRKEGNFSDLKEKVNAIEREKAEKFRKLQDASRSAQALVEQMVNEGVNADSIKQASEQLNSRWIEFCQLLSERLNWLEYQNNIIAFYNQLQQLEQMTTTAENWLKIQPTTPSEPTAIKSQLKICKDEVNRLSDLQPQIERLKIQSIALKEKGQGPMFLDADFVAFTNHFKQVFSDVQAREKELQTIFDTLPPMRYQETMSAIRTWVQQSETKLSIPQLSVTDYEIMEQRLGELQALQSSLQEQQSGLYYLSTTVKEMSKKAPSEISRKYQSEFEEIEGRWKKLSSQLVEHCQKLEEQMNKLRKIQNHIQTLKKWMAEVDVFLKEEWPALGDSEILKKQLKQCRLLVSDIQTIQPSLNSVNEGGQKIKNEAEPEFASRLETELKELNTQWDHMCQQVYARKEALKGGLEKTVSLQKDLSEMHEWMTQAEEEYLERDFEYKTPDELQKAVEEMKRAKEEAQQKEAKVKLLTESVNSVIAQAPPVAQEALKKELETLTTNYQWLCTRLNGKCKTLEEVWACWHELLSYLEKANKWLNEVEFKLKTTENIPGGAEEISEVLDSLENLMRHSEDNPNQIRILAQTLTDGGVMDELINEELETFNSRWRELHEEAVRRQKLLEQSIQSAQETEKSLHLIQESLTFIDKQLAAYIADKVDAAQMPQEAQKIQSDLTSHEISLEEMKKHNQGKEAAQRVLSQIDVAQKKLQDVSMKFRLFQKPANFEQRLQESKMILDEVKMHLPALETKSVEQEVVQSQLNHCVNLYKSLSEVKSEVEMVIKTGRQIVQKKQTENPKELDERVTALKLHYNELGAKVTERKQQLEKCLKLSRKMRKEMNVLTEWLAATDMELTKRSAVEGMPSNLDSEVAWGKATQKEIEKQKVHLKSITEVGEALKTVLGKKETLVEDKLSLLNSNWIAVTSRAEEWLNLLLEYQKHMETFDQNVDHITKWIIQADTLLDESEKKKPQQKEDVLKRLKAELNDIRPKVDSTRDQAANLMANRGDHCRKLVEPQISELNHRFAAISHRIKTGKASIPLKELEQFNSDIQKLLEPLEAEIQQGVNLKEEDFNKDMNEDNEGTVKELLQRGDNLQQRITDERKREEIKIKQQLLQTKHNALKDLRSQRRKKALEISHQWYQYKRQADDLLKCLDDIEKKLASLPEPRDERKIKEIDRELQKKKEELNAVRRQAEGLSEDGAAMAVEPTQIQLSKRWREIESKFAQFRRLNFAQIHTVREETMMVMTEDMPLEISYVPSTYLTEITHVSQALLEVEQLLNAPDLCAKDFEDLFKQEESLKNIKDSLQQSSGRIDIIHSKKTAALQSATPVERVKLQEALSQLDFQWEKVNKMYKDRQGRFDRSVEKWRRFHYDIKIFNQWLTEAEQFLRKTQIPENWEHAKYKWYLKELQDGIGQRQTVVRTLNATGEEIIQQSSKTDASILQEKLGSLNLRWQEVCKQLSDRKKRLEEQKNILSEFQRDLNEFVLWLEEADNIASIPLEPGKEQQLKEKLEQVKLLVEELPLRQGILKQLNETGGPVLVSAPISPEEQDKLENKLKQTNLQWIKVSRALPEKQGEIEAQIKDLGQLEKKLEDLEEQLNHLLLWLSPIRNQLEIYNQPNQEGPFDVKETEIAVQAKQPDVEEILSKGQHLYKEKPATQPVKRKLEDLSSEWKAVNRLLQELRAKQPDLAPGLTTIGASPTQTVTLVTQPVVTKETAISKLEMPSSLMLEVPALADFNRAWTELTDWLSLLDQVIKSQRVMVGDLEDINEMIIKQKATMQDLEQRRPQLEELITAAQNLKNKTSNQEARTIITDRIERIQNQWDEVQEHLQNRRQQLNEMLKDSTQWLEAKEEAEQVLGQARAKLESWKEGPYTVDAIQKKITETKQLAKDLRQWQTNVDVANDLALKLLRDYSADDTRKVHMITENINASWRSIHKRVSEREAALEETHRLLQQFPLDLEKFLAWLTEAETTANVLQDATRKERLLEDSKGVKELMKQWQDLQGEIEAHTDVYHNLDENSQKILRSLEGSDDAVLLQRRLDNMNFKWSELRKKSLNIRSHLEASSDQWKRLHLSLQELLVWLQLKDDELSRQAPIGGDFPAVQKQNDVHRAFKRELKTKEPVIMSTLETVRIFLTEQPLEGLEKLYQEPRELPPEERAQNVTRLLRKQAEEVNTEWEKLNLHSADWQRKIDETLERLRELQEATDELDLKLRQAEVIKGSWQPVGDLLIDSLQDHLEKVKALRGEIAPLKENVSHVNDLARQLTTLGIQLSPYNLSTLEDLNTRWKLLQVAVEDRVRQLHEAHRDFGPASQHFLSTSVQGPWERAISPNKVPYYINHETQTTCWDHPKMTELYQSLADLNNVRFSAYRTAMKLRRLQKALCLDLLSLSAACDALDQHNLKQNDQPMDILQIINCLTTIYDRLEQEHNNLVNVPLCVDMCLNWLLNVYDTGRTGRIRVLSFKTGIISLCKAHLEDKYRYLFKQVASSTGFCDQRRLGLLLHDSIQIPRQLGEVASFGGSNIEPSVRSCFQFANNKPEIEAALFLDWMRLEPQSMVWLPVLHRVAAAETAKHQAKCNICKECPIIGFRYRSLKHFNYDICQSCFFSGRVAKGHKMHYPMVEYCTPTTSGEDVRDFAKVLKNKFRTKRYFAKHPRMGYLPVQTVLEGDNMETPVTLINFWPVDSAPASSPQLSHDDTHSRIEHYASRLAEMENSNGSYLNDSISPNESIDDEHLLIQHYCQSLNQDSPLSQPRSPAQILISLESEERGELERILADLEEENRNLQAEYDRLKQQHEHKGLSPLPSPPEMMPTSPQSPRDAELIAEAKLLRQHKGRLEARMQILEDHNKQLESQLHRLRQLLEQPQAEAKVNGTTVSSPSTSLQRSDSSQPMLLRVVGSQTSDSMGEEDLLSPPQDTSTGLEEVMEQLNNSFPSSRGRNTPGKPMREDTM

Assays:
Assay in all cases: log2 fold change, soluble protein after heating vs DMSO (PISA); higher = thermal stabilisation; K562 lysate, 10 uM; active = over 0.2 and 3.5 SD of the protein, either way, in both replicates (recomputed)
pictilisib = compound: CS(=O)(=O)N1CCN(Cc2cc3nc(-c4cccc5[nH]ncc45)nc(N4CCOCC4)c3s2)CC1 [pictilisib]
In short: (§1)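 Dounce homogenisation of K562 pellets in PBS pH 7.4 with 1 mM MgCl2 produced a crude extract, used at 1 mg/mL protein. Exposure to 10 μM compound lasted 30 min, and aliquots were then heated for 3 min across 48°C-58°C, pooled and brought to 0.5% NP-40 at 4°C. The supernatant after 21,000xg for 90 min was quantified by TMTpro 16plex LC-MS/MS with channel sums equalised. Duplicate values are given as log-two fold change in thermal stability relative to solvent controls.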

crizotinib = compound: C[C@@H](Oc1cc(-c2cnn(C3CCNCC3)c2)cnc1N)c1c(Cl)ccc(F)c1Cl [crizotinib]
In short: as §1

[1] = compound: C[C@H](C1=CC=C(C=C1)C(=O)NC2=C3C=CNC3=NC=C2)N
In short: as §1

gandotinib = compound: Cc1cc(Nc2cc(CN3CCOCC3)c3nc(C)c(Cc4ccc(Cl)cc4F)n3n2)n[nH]1 [gandotinib]
In short: as §1

doramapimod = compound: Cc1ccc(-n2nc(C(C)(C)C)cc2NC(=O)Nc2ccc(OCCN3CCOCC3)c3ccccc23)cc1 [doramapimod]
In short: as §1

bafetinib = compound: Cc1ccc(NC(=O)c2ccc(CN3CC[C@H](N(C)C)C3)c(C(F)(F)F)c2)cc1Nc1nccc(-c2cncnc2)n1 [bafetinib]
In short: as §1

[2] = compound: Cc1cccc(CC(=O)N2CCc3c2ccc(-c2cn(C)c4ncnc(N)c24)c3F)n1
In short: as §1

nilotinib = compound: Cc1cn(-c2cc(NC(=O)c3ccc(C)c(Nc4nccc(-c5cccnc5)n4)c3)cc(C(F)(F)F)c2)cn1 [nilotinib]
In short: as §1

[3] = compound: Cc1nc(Nc2n[nH]c3c2CN(C(=O)N[C@H](CN(C)C)c2ccccc2)C3(C)C)c2sccc2n1
In short: as §1

[4] = compound: Cc1ncc(-c2ccnc(Nc3ccc(S(C)(=O)=O)cc3)n2)n1C(C)C
In short: as §1

quisinostat = compound: Cn1cc(CNCC2CCN(c3ncc(C(=O)NO)cn3)CC2)c2ccccc21 [quisinostat]
In short: as §1

tipifarnib = compound: Cn1cncc1[C@@](N)(c1ccc(Cl)cc1)c1ccc2c(c1)c(-c1cccc(Cl)c1)cc(=O)n2C [tipifarnib]
In short: as §1

[5] = compound: NC(=O)Nc1cc(-c2cccc(F)c2)sc1C(=O)N[C@H]1CCCNC1
In short: as §1

[6] = compound: NC1(c2ccc(-c3nc4ccn5c(=O)[nH]nc5c4cc3-c3ccccc3)cc2)CCC1
In short: as §1

tozasertib = compound: Cc1cc(Nc2cc(N3CCN(C)CC3)nc(Sc3ccc(NC(=O)C4CC4)cc3)n2)n[nH]1 [tozasertib]
In short: as §1

duvelisib = compound: C[C@H](Nc1ncnc2nc[nH]c12)c1cc2cccc(Cl)c2c(=O)n1-c1ccccc1 [duvelisib]
In short: as §1

dasatinib = compound: Cc1nc(Nc2ncc(C(=O)Nc3c(C)cccc3Cl)s2)cc(N2CCN(CCO)CC2)n1 [dasatinib]
In short: as §1

[7] = compound: Cn1cc(-c2ccc3c(c2)CCN3C(=O)Cc2cccc(C(F)(F)F)c2)c2c(N)ncnc21
In short: as §1

lapatinib = compound: CS(=O)(=O)CCNCc1ccc(-c2ccc3ncnc(Nc4ccc(OCc5cccc(F)c5)c(Cl)c4)c3c2)o1 [lapatinib]
In short: as §1

[8] = compound: NC(=O)c1cnc(N[C@@H]2CCCC[C@@H]2N)nc1Nc1cccc(-n2nccn2)c1
In short: as §1

Measured: log2 fold change

DNMT1 (UniProt P26358)
inactive: pictilisib 0.08 | crizotinib 0.019 | [1] 0.036 | gandotinib 0.022 | doramapimod 0.074 | bafetinib -0.017 | [2] -0.047 | nilotinib 0.049 | [3] 0.039 | [4] -0.047 | quisinostat -0.011 | tipifarnib -0.115 | [5] -0.103

DLX2 (UniProt Q07687)
inactive: [6] -0.092

DMAC1 (UniProt Q96GE9)
inactive: [1] 0.176 | gandotinib -0.122 | [2] -0.026

DGCR6L (UniProt Q9BY27)
inactive: crizotinib -0.002 | [1] -0.211 | gandotinib 0.094 | doramapimod -0.121 | [2] 0.066 | nilotinib 0.029 | [3] -0.037 | [4] 0.132 | quisinostat -0.091 | tipifarnib 0.066 | [5] 0.127

DHX32 (UniProt Q7L7V1)
inactive: crizotinib -0.03 | [1] -0.013 | gandotinib -0.01 | tozasertib 0.108 | doramapimod 0.012 | [2] -0.077 | nilotinib -0.025 | [3] -0.027 | [4] -0.044 | quisinostat -0.015 | tipifarnib -0.061 | [5] 0.142 | [6] 0.108

DLC1 (UniProt Q96QB1)
inactive: pictilisib 0.008 | crizotinib -0.115 | tozasertib -0.215 | doramapimod -0.162 | bafetinib -0.159 | quisinostat -0.193 | [5] -0.139

DNAJC14 (UniProt Q6Y2X3)
inactive: duvelisib -0.082 | tozasertib -0.023 | dasatinib 0.148 | [7] -0.03

DOT1L isoform 1 (UniProt Q8TEK3)
inactive: crizotinib 0.211 | duvelisib -0.102 | tozasertib -0.022 | doramapimod 0.167 | dasatinib -0.091 | [7] -0.051 | quisinostat 0.057 | [5] 0.118 | [6] 0.04

DOP1A (UniProt Q5JWR5)
inactive: pictilisib 0.017 | crizotinib 0.006 | duvelisib -0.141 | tozasertib 0.022 | doramapimod -0.07 | bafetinib -0.065 | nilotinib 0.064 | [3] -0.01 | dasatinib -0.337 | [4] 0.016 | [7] 0.147 | quisinostat 0.034 | tipifarnib -0.036 | [5] -0.034

DHRSX (UniProt Q8N5I4)
inactive: duvelisib 0.162 | dasatinib 0.007 | [7] -0.056 | [6] -0.083

DMBT1 isoform 6 (UniProt Q9UGM3)
inactive: [1] 0.158 | gandotinib -0.554 | tozasertib 0.648 | [2] 0.006 | nilotinib -0.03 | [3] 0.116 | [4] -0.01 | tipifarnib -0.334

DGLUCY isoform 2 (UniProt Q7Z3D6)
inactive: crizotinib -0.117 | doramapimod 0.16 | quisinostat -0.02 | [5] 0.06

DLG1 isoform 3 (UniProt Q12959)
inactive: pictilisib 0.005 | bafetinib -0.003

DOLK (UniProt Q9UPQ8)
inactive: [1] -0.098 | gandotinib 0.183 | [2] -0.02

DHX34 (UniProt Q14147)
inactive: pictilisib 0.124 | crizotinib -0.067 | [1] -0.012 | duvelisib 0.023 | gandotinib -0.287 | tozasertib 0.012 | doramapimod -0.004 | bafetinib -0.116 | [2] 0.048 | nilotinib 0.042 | [3] 0.066 | dasatinib -0.165 | [4] 0.036 | [7] 0.006 | quisinostat -0.062 | tipifarnib 0.027 | [5] 0.075 | [6] -0.054

DNAJA3 isoform 2 (UniProt Q96EY1)
inactive: pictilisib -0.018 | duvelisib -0.122 | tozasertib -0.035 | bafetinib -0.022 | dasatinib 0.101 | [7] -0.124 | [6] -0.026

DGKE (UniProt P52429)
inactive: [1] -0.139 | duvelisib -0.027 | gandotinib 0.18 | tozasertib -0.301 | [2] 0.178 | dasatinib 0.118 | [7] 0.039 | [6] 0.046

DHPS (UniProt M0R1T2)
inactive: [1] -0.263 | gandotinib 0.333 | [2] 0.36 | nilotinib -0.175 | [3] -0.489 | [4] -0.277 | tipifarnib -0.024

DNAJC16 (UniProt Q9Y2G8)
inactive: pictilisib -0.117 | crizotinib -0.168 | [1] 0.203 | duvelisib -0.109 | gandotinib -0.072 | doramapimod -0.153 | bafetinib 0.059 | [2] -0.091 | nilotinib 0.05 | [3] 0.024 | dasatinib -0.059 | [4] 0.079 | [7] -0.137 | quisinostat -0.02 | tipifarnib -0.001 | [5] 0.014

DNAJB2 (UniProt P25686)
inactive: pictilisib -0.103 | crizotinib -0.047 | [1] -0.053 | duvelisib -0.101 | gandotinib 0.069 | tozasertib -0.002 | doramapimod -0.171 | bafetinib 0.035 | [2] -0.03 | nilotinib 0.08 | [3] -0.096 | dasatinib 0.134 | [4] -0.279 | [7] 0.173 | quisinostat 0.11 | tipifarnib 0.06 | [5] -0.03 | [6] -0.259

DNMT3B (UniProt Q9UBC3)
inactive: tozasertib 0.262 | nilotinib 0.045 | [3] -0.046 | [4] -0.015 | tipifarnib 0.084

DNAJB14 (UniProt H7C494)
inactive: crizotinib 0.116 | [1] -0.02 | gandotinib -0.082 | doramapimod -0.017 | [2] 0.03 | quisinostat 0.033 | [5] -0.043

DNAJC19, A0A2R8Y839
inactive: crizotinib -0.217 | doramapimod 0.017 | nilotinib -0.024 | [3] -0.159 | [4] 0.104 | quisinostat -0.23 | tipifarnib -0.203 | [5] 0.076

2 neighbouring records from above:
DNAJB14 (UniProt H7C494)
inactive: crizotinib 0.116 | [1] -0.02 | gandotinib -0.082 | doramapimod -0.017 | [2] 0.03 | quisinostat 0.033 | [5] -0.043

DNAJC19, A0A2R8Y839
inactive: crizotinib -0.217 | doramapimod 0.017 | nilotinib -0.024 | [3] -0.159 | [4] 0.104 | quisinostat -0.23 | tipifarnib -0.203 | [5] 0.076

Further records:

DNAL1 (UniProt Q4LDG9)
inactive: pictilisib -0.242 | crizotinib -0.053 | [1] -0.032 | duvelisib 0.088 | gandotinib -0.075 | tozasertib 0.058 | doramapimod -0.009 | bafetinib 0.032 | [2] -0.194 | dasatinib 0.277 | [7] -0.013 | quisinostat 0.039 | [5] 0.019 | [6] 0.003

DMD isoform 14 (UniProt P11532)
inactive: pictilisib -0.087 | crizotinib 0.041 | [1] 0.204 | duvelisib -0.017 | gandotinib 0.194 | doramapimod -0.043 | bafetinib 0.062 | [2] 0.313 | dasatinib 0.182 | [7] 0.359 | quisinostat -0.024 | [5] -0.009

DOCK5 (UniProt Q9H7D0)
inactive: lapatinib -0.36 | [8] -0.147

DNAH12 (UniProt Q6ZR08)
inactive: pictilisib -0.06 | [1] -0.057 | duvelisib -0.247 | gandotinib 0.04 | bafetinib -0.361 | [2] 0.344 | dasatinib 0.369 | [7] -0.184

DNA2 (UniProt P51530)
inactive: crizotinib -0.046 | [1] 0.052 | duvelisib -0.02 | gandotinib 0.013 | tozasertib -0.07 | doramapimod 0.051 | [2] -0.017 | nilotinib 0.011 | [3] 0.007 | dasatinib 0.069 | [4] 0.005 | [7] 0.05 | quisinostat -0.069 | tipifarnib -0.04 | [5] 0.043 | [6] 0.067
